Assay [1] is described as follows: Validation of Assay for Modulators of Lamin A Splicing (AID 1459). Conditions: Lamin A splicing dual RFP/GFP fluorescence reporter, ratio. In short, it runs like this: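 HeLa S3 lamin A-EGFP/DsRed2 stable clone, 600 cells/well, Opti-MEM 2% FBS; compounds by pin tool; 48 hrs, 37 °C/5% CO2; Acumen 488 nm scan, objects 10-100 um; GFP/RFP intensity ratio.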
Assay [2] can be described thus: qHTS Assay for Modulators of Human Peripheral Myelin Protein 22 (PMP22) Expression/Activity (AID 1967). Conditions: Cell-based PMP22 reporter, dual-color luciferase ratio. The essentials:
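Luminescence ratio of Pmp22 promoter-driven green luciferase to EF-alpha-driven red luciferase, in engineered mouse MSC80 Schwann cells, served as read-out. Compounds were incubated 24h; untreated cells defined 0% Activity; curves were classified by r2, magnitude and activity.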
(qHTS replaces the single test concentration by a dilution series.)

Protein sequences, listed by entry. Tags and fused reporters are not part of them. Lines headed by an entry give the natural chain unless they say otherwise; changes in a name come on top.
UniProt P50135: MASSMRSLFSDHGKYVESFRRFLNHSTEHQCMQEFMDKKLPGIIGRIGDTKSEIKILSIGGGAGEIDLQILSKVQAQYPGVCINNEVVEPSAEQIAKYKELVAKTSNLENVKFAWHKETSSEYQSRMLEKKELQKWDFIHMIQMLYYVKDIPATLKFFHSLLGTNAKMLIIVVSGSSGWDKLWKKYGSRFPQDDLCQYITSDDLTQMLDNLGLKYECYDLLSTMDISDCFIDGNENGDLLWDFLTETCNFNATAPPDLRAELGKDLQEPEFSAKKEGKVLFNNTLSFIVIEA
UniProt P21964: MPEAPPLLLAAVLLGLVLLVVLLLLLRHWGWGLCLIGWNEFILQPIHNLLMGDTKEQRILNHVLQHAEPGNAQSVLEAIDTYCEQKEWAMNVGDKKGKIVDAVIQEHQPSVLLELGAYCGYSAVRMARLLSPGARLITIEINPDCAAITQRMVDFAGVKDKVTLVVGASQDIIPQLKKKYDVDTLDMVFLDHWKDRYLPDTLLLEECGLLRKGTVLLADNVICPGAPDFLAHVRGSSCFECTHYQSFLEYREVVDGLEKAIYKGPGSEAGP

Assay [3] in a line: qHTS Validation Assay to Find Inhibitors of Chronic Active B-Cell Receptor Signaling (AID 485345). The note with it: ABC-DLBCL cells, chronic BCR signaling reporter. The essentials: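 Read-out: ratio of filter-corrected green (IkappaBalpha fusion) to red (native) luciferase signal in doxycycline-induced TMD8 cells after 4 h at 37C. Titration spanned 46 uM–3 nM; Data were normalised to basal cells and 10 uM MG-132 wells.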

Assay [4] in a line: qHTS Assay for Inhibitors of PDE-IV (AID 607). Conditions: HEK293 ACTOne CNG channel cells, membrane potential fluorescence; measured here: parental cell counter-screen. In short, it runs like this:
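HEK293 ACTOne cells with CNG channel (1000/well), endogenous PDE4; membrane potential dye, compounds up to 22.9 uM final. Fluorescence Ex 535/Em 590; RO 20-1724 (100 uM final) as reference.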

Assay [5] in a line: qHTS Assay for Lipid Storage Modulators (AID 1519). The note with it: Drosophila S3 cells, BODIPY lipid droplet/cell ratio, laser cytometry, cells loaded with oleic acid. The essentials: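 Cells seeded at 5,000 per well were treated with compounds over a concentration series and loaded with oleic acid (400 uM, as added). Lipid droplet fluorescence (488 nm excitation, 500-530 nm channel) was read by laser-scanning cytometry and normalized to 20 uM Triacsin C.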

Assay [6] can be described thus: Nrf2 qHTS screen for inhibitors: Validation (AID 493153). Conditions: A549 ARE-Fluc reporter, 18-24 h; AC50: CellTiter-Fluor fluorescence read, measured here: cytotoxicity CellTiter-Fluor AC50; viability change: measured here: cytotoxicity max response. In short, it runs like this: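 A549 ARE_Fluc, 5% FBS OPTI-MEM; cpd titration, 18-24 h, 37°C/5% CO2. Read 1: CellTiter-Fluor (Ex 405/Em 525), cytotox. Read 2: luciferase lum, Nrf2 activity.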

Assay [7] concerns the target Histamine N-methyltransferase (Homo sapiens) (UniProt P50135). Kind of assay: Confirmatory Screen for Target Class Profiling of Small Molecule Inhibitors of Methyltransferases (AID 1745852). The note with it: MTase-Glo luminescence, SAH detection, recombinant enzyme; measured here: HNMT inhibition potency.
A short description of assay [8]: qHTS assay for small molecule antagonists of peroxisome proliferator-activated receptor gamma signaling (AID 588537). The note with it: HEK293 PPARg-UAS-bla, beta-lactamase ratio, antagonist mode; measured here: W460 blue channel. The essentials: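 Antagonist-mode β-lactamase reporter screen run as a titration series. HEK293 PPARγ-UAS-bla cells are stimulated with rosiglitazone (50 nM final) for 16 h, then CCF4 is read at 460/530 nm. Data are scaled between DMSO and rosiglitazone and fitted to the Hill equation.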

The nature of assay [9]: A High-Content qHTS Against Drug Library for the Identification of Small Molecules that Inhibit DYT1 Early Onset Primary Dystonia-Associated Cell Pathology (AID 1645839). Conditions: HEK293 Flp-In EGFP-delE TorsinA, punctate imaging, 48 h; measured here: cell count cytotoxicity. The essentials: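 High-content imaging quantified EGFP-TorsinA mislocalization in HEK293-derived cells inducibly expressing DYT1 mutant torsinA, after 48 h exposure to compound given together with tetracycline induction. Cell count served as a toxicity channel alongside %pathology.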

A short description of assay [10]: NCATS anti-infectives library activity on the primary C. elegans qHTS viability assay (AID 1745855). Conditions: C. elegans worm area imaging. In short, it runs like this: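 GFP read-out by 488 nm laser cytometry at day 0, 3 and 7, gated on object perimeter, area and peak intensity, scored viability of PE254-GFP-FLuc worms exposed to compound in S medium with bacterial capsules at 21 °C.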

In assay [11] the target is Catechol O-methyltransferase (Homo sapiens) (UniProt P21964). Kind of assay: Confirmatory Screen for Target Class Profiling of Small Molecule Inhibitors of Methyltransferases (AID 1745852). Conditions: MTase-Glo luminescence, SAH detection, recombinant enzyme; measured here: COMT inhibition potency.
[12] abbreviates: measured here: green reporter channel AC50, mouse Pmp22 promoter in mouse Schwann cells.
Where [13] appears, read: measured here: red reporter channel AC50, EF-alpha promoter control reporter in MSC80 mouse Schwann cells.
Setting [14] is: measured here: CBG/CBR ratio read-out.
The mark [15] stands for this setting: measured here: CBR control luciferase (viability counter).
The mark [16] stands for this setting: measured here: cell count channel max response.
The mark [17] stands for this setting: measured here: cell number channel AC50.
[18] abbreviates: measured here: lipid (BODIPY) channel AC50.
Setting [19] is: measured here: lipid channel max response.

Values joined by “and” are separate entries in the source; they are usually repeats but may differ in a detail not shown here. Equal entries are not always repeated. The list shows a part of the results. These are further read-outs of the screen, such as a control signal, another cell line or another target. No call is given for them. Most of these compounds were active or inconclusive in the main read-out, so they are no random draw. For some of these results: Words in brackets tell the shape of the fitted curve; partial curves, single points and poor fits give uncertain potencies.

The term AC50 denotes the concentration at which the activity in the assay is half-maximal. Broadly, the IC50 is the concentration that inhibits the measured activity by half.

As for `S=C(Nc1ccccc1)Nc1nccs1`, the concentration at half-maximal activity (AC50) in assay [1] (measured here: GFP channel) was 3.98 µM [falling, full curve]; in assay [1] (measured here: RFP channel) it was 5.01 µM [falling, partial curve, poor fit]; in assay [2] (setting [12]), 23.9 µM [falling, full curve]; in assay [2] (setting [13]) it was 37.9 µM [falling, full curve, poor fit]; in assay [3] (setting [14]) it was 18.4 µM [falling, single point]; in assay [3] (setting [15]), 16.4 µM [falling, single point].
`c1cc(CN2CCCCC2)cc(OCCCNc2nc3ccccc3s2)c1`: the half-maximal activity concentration (AC50) in [4] is 25.1 µM [rising, single point]; in [1] (measured here: RFP channel), 2.51 µM [falling, partial curve]; in assay [5] (setting [17]), 35.5 µM [rising, partial curve, poor fit]; in [5] (setting [18]) it was 39.8 µM [rising, partial curve, poor fit]; in assay [2] (setting [12]) it was 30.1 µM [falling, partial curve]; in assay [2] (setting [13]), 30.1 µM [falling, partial curve]. The half-maximal activity concentration (AC50) is 23.1 µM [falling, single point] in assay [3] (setting [14]) and 20.6 µM [falling, single point] in assay [3] (setting [15]). The results for the max response in assay [5] (setting [16]) and in assay [5] (setting [19]) were 63.6% and 74.6%, respectively.
For `CC(=O)OCC1=C(C(=O)O)N2C(=O)[C@@H](NC(=O)CSc3ccncc3)[C@H]2SC1`, the AC50 in assay [1] (measured here: GFP channel) is 11.2 µM [rising, partial curve, poor fit]; in assay [5] (setting [17]) it was 39.8 µM [rising, single point]; in [5] (setting [18]) it was 35.5 µM [rising, partial curve, poor fit]. For the same compound, the figures for the max response in assay [5] (setting [16]) and in assay [5] (setting [19]) were 61.7% and 65.4%, respectively.
In the case of `NC(=NCc1ccc(Cl)c(Cl)c1)NC(=O)c1nc(Cl)c(N)nc1N`, the AC50 is 17.8 µM [falling, single point] in assay [1] (measured here: GFP channel); 12.6 µM [falling, partial curve] in assay [1] (measured here: RFP channel); 19 µM [falling, full curve] in assay [2] (setting [12]); 21.3 µM [falling, full curve] in assay [2] (setting [13]).
As for `CO/N=C(\C(=O)N[C@@H]1C(=O)N2C(C(=O)O)=C(COC(C)=O)CS[C@H]12)c1csc(N)n1` (stereo in doubt), the AC50 in assay [1] (measured here: GFP channel) was 14.1 µM [rising, partial curve, poor fit]. For the same compound, the max response in assay [5] (setting [16]) is 38.3%; in [5] (setting [19]), 37.6%.
Consider `Cc1cc(N)c2ccccc2[n+]1CCCCCCCCCC[n+]1c(C)cc(N)c2ccccc21`, for which the half-maximal activity concentration (AC50) in assay [1] (measured here: GFP channel) was 3.16 µM [falling, partial curve, poor fit]; in assay [5] (setting [17]) it was 0.0282 µM [falling, full curve, poor fit]; in assay [5] (setting [18]), 15.8 µM [falling, single point] and 25.1 nM [falling, full curve, poor fit]; in [2] (setting [12]) it was 37.9 µM [falling, full curve]; in assay [2] (setting [13]) it was 33.8 µM [falling, full curve]. In addition, the max response in assay [5] (setting [16]) is -24.3% and 38.2% and -69.5%; in [5] (setting [19]), -66.3% and -80.9% and -79.5%. Moreover, the viability change in [6] was -11.9%. Also, in assay [7], the IC50 was 3.43 µM [falling, full curve].
Turning to `CN(C)CCCN1c2ccccc2Sc2ccc(Cl)cc21`, the concentration at half-maximal activity (AC50) in assay [1] (measured here: RFP channel) is 35.5 µM [falling, single point]; in [5] (setting [17]), 39.8 µM [falling, single point]; in [2] (setting [12]), 42.6 µM [falling, full curve]; in [2] (setting [13]) it was 42.6 µM [falling, full curve]; in [3] (setting [14]) it was 25.9 µM [falling, single point]; in assay [3] (setting [15]) it was 10.3 µM [falling, partial curve]. Also, the AC50 is 0.00112 µM [falling, full curve, poor fit] in [8]; 3.98 µM [falling, full curve] in assay [9]; 25.8 µM [falling, single point] in [10] (day 7, measured here: worm number); 25.8 µM [falling, single point] in assay [10] (day 7, measured here: worm area, day 3). For the same compound, the max response in assay [5] (setting [16]) is -45%; in [5] (setting [19]), -45.8%.
For `NC(N)=NCc1cccc(I)c1`, the AC50 is 35.5 µM [falling, single point] in [1] (measured here: GFP channel); 35.5 µM [falling, single point] in [1] (measured here: RFP channel); 30.1 µM [falling, partial curve, poor fit] in assay [2] (setting [13]); 14.6 µM [falling, single point] in assay [3] (setting [15]).
In the case of `Oc1cc2c(cc1O)CN(C(=S)NCCc1ccc(Cl)cc1)CCC2`, the half-maximal activity concentration (AC50) in assay [1] (measured here: RFP channel) is 7.08 µM [falling, partial curve, poor fit]; in assay [5] (setting [17]), 14.1 µM [rising, partial curve, poor fit] and 35.5 µM [rising, single point]; in assay [5] (setting [18]), 12.6 µM [rising, partial curve, poor fit] and 35.5 µM [rising, partial curve, poor fit]; in assay [2] (setting [12]), 84.9 µM [falling, single point]; in [3] (setting [15]) it was 11.6 µM [falling, partial curve]. Also, the max response in assay [5] (setting [16]) was 68% and 59.7%; in assay [5] (setting [19]), 82.2% and 60.4%. Also, in assay [11], the IC50 is 2.43 µM [rising, full curve].

The values are drawn from PubChem BioAssay (NCATS).
